# Among all 310,000 compounds or so, about 17,000 (5.5%) were called active. Inconclusive results, whose numbers are uncertain, are shown with a selection of clear calls. Calls come from the whole dose curve; as a rule, active = well fitted inhibition curve with a large enough effect; inconclusive = small, poorly fitted or top-dose-only effect, or effect the other way; inactive = no such curve, though single readings can be large or run the other way. Potencies of inconclusive entries are doubtful fits and often do not repeat.
# Protein sequences, listed by entry. Tags and fused reporters are not part of them. Lines headed by an entry give the natural chain unless they say otherwise; changes in a name come on top.
# UniProt P51450: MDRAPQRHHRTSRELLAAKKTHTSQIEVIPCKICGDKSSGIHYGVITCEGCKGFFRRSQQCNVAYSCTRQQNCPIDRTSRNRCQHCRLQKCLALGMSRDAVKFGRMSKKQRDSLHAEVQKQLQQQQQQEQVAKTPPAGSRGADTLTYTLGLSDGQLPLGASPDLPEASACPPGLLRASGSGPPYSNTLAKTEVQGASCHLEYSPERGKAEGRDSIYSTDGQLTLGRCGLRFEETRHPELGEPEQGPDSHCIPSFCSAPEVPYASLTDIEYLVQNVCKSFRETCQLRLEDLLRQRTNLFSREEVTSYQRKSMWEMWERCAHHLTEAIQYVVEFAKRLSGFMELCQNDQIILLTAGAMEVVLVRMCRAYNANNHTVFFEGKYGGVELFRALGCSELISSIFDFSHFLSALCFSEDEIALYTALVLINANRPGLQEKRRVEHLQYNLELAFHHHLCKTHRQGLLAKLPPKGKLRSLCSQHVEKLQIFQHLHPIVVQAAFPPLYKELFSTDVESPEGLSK
# Molecular target: Nuclear receptor ROR-gamma (Mus musculus) (UniProt P51450)
# Experiment: qHTS for inhibitors of ROR gamma transcriptional activity; note: nearly all actives have a fitted effect of over 60% in size
# Settings: Drosophila S2 Gal4-RORgamma UAS-luciferase reporter, 20 h; activity change, negative = inhibition: at 53.6 µM (top of the series)
# In short: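 ROR gamma transcriptional activity was tracked as Gal4-UAS luciferase output in stably transfected Drosophila Schneider cells, with compound added 1 hr before 700 uM copper sulfate induction and a 20 hr ambient-temperature incubation.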
# % is set by controls: 0 for no effect and ±100 for the full control effect; potency is the fitted concentration of half-maximal effect.
SMILES,Potency,"activity change, negative = inhibition"
O=C1C(SC(F)(F)C(F)F)=C(C(F)(F)F)OC2C3C=CC(C3)C12 (stereo not drawn),"inconclusive: 11.2 µM [activator, partial curve, poor fit]",–
COc1cccc(CN2CCN(S(=O)(=O)c3ccc(Br)cc3)CC2)c1,–,inactive: 37.7%
COc1cccc(NC(=O)N2CCN(c3nc(-c4cccc(OC)c4)cs3)CC2)c1,–,inactive: -0.728%
OC1(c2ccc(F)cc2)CSC(=Nc2cccnc2)N1Cc1ccco1 (stereo not drawn),"inconclusive: 35.5 µM [inhibitor, single point]",–
O=C(N/N=C/c1ccc([N+](=O)[O-])cc1)c1cccnc1,"inconclusive: 11.2 µM [activator, single point]",–
COc1ccc(CCNc2ncnc3c2c(C)c(C)n3CCO)cc1OC,"inconclusive: 20 µM [activator, single point]",–
COc1cc(OC)c(C(=O)OCC(=O)Nc2ccccc2Cl)cc1OC,–,inactive: -13.7%
CCOC(=O)CSc1nc(C)c(C(C)=O)cc1C#N,"inconclusive: 25.1 µM [inhibitor, single point]",–
Cc1ccc(NC(=O)Cn2c(-c3ccc(F)cc3)cnc2SCC(=O)Nc2c(C)cccc2C)cc1,–,inactive: -26.6%
CC(C)NC(=O)NC(=O)CSc1ccccc1F,"inconclusive: 17.8 µM [activator, partial curve, poor fit]",–
O=C(NC(=S)N1CCN(c2ccccc2)CC1)c1ccc(S(=O)(=O)N2CCOCC2)cc1,active: 0.708 µM,–
O=C1/C(=C/c2ccccc2F)SC(=S)N1CC(=O)N1CCCCC1c1cccnc1 (stereo not drawn),"inconclusive: 15.8 µM [inhibitor, single point]",–
N#Cc1cc(C(=O)c2cc(Br)ccc2O)cn(Cc2ccccc2)c1=O,"inconclusive: 28.2 µM [inhibitor, single point]",–
O=C(N/N=C/c1ccc([N+](=O)[O-])o1)c1cc(-c2ccc(-c3ccccc3)cc2)nc2ccccc12,active: 0.708 µM,–
CC(C)OC(=O)c1cc2c(=O)[nH]c(C(Cl)(Cl)Cl)nc2o1,"inconclusive: 35.5 µM [activator, single point]",–
CCC(=O)Nc1cccc(-c2cc3ccccc3oc2=O)c1,"inconclusive: 0.158 µM [activator, full curve, poor fit]",–
Cc1c(/C=N/NC(=O)CNc2ccccc2)c2ccccn2c1C(=O)c1ccccc1,"inconclusive: 3.16 µM [activator, single point]",–
CCOc1ccc(CN2CCNC(=O)C2CC(=O)NCc2ccccn2)cc1 (stereo not drawn),active: 11.2 µM,–
COc1ccccc1-n1cnnc1SCC(=O)N1CCOCC1,–,inactive: 1%
CCCCCN=c1ccn(Cc2ccccc2)c2ccccc12,active: 15.8 µM,–
COc1cc2c(cc1OC)[C@@H]1C(=O)c3ccc4c(c3O[C@@H]1CO2)C=CC(C)(C)O4,"inconclusive: 0.562 µM [inhibitor, full curve, poor fit]",–
COc1ccccc1C(=O)C1CCCN(C(=O)CN2CCCCC2=O)C1 (stereo not drawn),–,inactive: 1.58%
CC1=CCC(C(=O)O)(C(=O)N/N=C/c2cccs2)C(c2ccc(Cl)cc2)C1 (stereo not drawn),"inconclusive: 35.5 µM [inhibitor, single point]",–
CN(C(=O)COc1ccc(C(C)(C)C)cc1)C1CCS(=O)(=O)C1 (stereo not drawn),"inconclusive: 0.0794 µM [inhibitor, full curve, poor fit]",–
CCOc1cc(N2CCOCC2)c(OCC)cc1NC(C)C(=O)N1CCC(C)CC1 (stereo not drawn),–,inactive: 26%

SMILES,Potency,"activity change, negative = inhibition"
COc1ccc(C2/C(=C(/O)c3ccc(F)cc3)C(=O)C(=O)N2c2ccccn2)cc1OC (stereo not drawn),–,inactive: -0.85%
O=C(Cn1cnc2c(nnn2Cc2ccc(Cl)cc2)c1=O)N1CCCc2ccccc21,"inconclusive: 35.5 µM [activator, single point]",–
CCOC(=O)c1c(NC(=O)/C=C\C(=O)O)sc(C)c1-c1ccccc1,"inconclusive: 7.94 µM [inhibitor, partial curve]",–
Oc1ccccc1C1=NN(c2ccccc2)C(c2ccccc2)C1 (stereo not drawn),–,inactive: -8.49%
CCOC(=O)c1cnc2c(-c3ccccc3)cnn2c1N,active: 1.58 µM,–
Cc1ccc(C)c(CSC2=NCCN2C(=O)Cc2ccc([N+](=O)[O-])cc2)c1,"inconclusive: 11.2 µM [activator, partial curve]",–
Cc1c(NC(=O)Cc2cccs2)cccc1[N+](=O)[O-],"inconclusive: 7.94 µM [activator, partial curve]",–
COc1cccc(CN2CC(C(=O)NCCC3=CCCCC3)CCC2=O)c1 (stereo not drawn),–,inactive: 1.92%
CCOC(=O)C1(Cc2ccccc2C)CCCN(C(=O)c2cc(C3CC3)[nH]n2)C1 (stereo not drawn),"inconclusive: 12.6 µM [activator, single point]",–
CCOc1ccc2nc(SCC(=O)NCc3ccc(S(N)(=O)=O)cc3)sc2c1,"inconclusive: 12.6 µM [activator, partial curve]",–
COc1cccc(CNc2nc(C(F)(F)F)nc3ccccc23)c1,"inconclusive: 12.6 µM [activator, single point]",–
Cc1cccc(Nc2c3c(nc4ncnn24)CCC3)c1,"inconclusive: 3.55 µM [inhibitor, single point]",–
CN(C)S(=O)(=O)c1ccc(N2CCN(S(=O)(=O)c3ccc(F)cc3)CC2)c(Cl)c1,"inconclusive: 35.5 µM [activator, single point]",–
COCCCNc1nc(N)c([N+](=O)[O-])c(N2CCCCCC2)n1,"inconclusive: 35.5 µM [activator, single point]",–
COc1cc(OC)cc(C(C(=O)NCc2ccccc2)N(Cc2ccco2)C(=O)c2ccno2)c1 (stereo not drawn),"inconclusive: 12.6 µM [activator, single point]",–
CN(C)CCN(Cc1cc2cc3c(cc2[nH]c1=O)OCO3)C(=S)NCC1CCCO1 (stereo not drawn),–,inactive: -0.623%
CCC(=O)N1CCc2cc(S(=O)(=O)CCC(=O)N3CCN(c4ccc(C(C)=O)cc4)CC3)ccc21,"inconclusive: 35.5 µM [activator, single point]",–
CCOC(=O)C(C)n1cnc2scc(-c3ccc(C)c(C)c3)c2c1=O (stereo not drawn),"inconclusive: 35.5 µM [activator, single point]",–
Brc1cc2c(cc1/C=N/Nc1nc(N3CCCC3)nc(N3CCOCC3)n1)OCO2,–,inactive: -16.4%
Cc1cc(=O)[nH]c2c1c(C)nn2C1CCCC1,–,inactive: 7.09%
COc1ccc(NC(=O)N2CCCC(c3nc(-c4ccc(F)cc4)no3)C2)cc1 (stereo not drawn),"inconclusive: 35.5 µM [inhibitor, single point]",–
COc1cc(CC(=O)Nc2ccc(S(=O)(=O)N(C)C)cc2)cc(OC)c1OC,"inconclusive: 4.47 µM [activator, single point]",–
CN(c1ccc(C(=O)N2CCCCC2)cc1)S(=O)(=O)c1ccccc1,"inconclusive: 2.24 µM [activator, full curve, poor fit]",–
CCNC(=S)N/N=C/c1ccco1,active: 2.24 µM,–
Cc1cccc(-n2nnc3c(=O)n(Cc4ccccn4)cnc32)c1,–,inactive: 3.68%

SMILES,Potency,"activity change, negative = inhibition"
CC(=O)CSc1nsc(SCC(C)=O)c1C#N,"inconclusive: 11.2 µM [inhibitor, single point]",–
Cc1cc(C(=O)N/N=C/c2ccc(N(C)C)o2)cs1,active: 12.6 µM,–
Cc1ccc(-c2csc3ncn(CC#N)c(=O)c23)cc1,"inconclusive: 7.94 µM [activator, partial curve]",–
Cc1ccc(CS/C(Nc2ccccc2C)=C(\C#N)C(N)=O)c(C)c1,–,inactive: 12.2%
c1ccc2sc(NN=C3CCCCCC3)nc2c1,active: 3.98 µM,–
c1coc(CN(Cc2ccco2)c2ncnc3c2oc2ccccc23)c1,"inconclusive: 28.2 µM [inhibitor, single point]",–
Cc1cc(C)n2nc(C(F)(F)F)c(-c3ccccc3)c2n1,"inconclusive: 14.1 µM [activator, single point]",–
Cc1cc(C(=O)Nc2ccc(N3CCOCC3)c(Cl)c2)c(C)o1,active: 3.16 µM,–
CCOC(=O)N1CCN(C(=O)Nc2cccc3ccccc23)CC1,–,inactive: 3.61%
CCOC(=O)N=S(N)(=O)c1ccc(Cl)cc1 (stereo not drawn),–,inactive: -18.3%
Cc1cc(C)cc(Nc2nc3ccccc3c(=O)[nH]2)c1,–,inactive: -41.3%
Cc1csc(NC(=O)CSc2nnc(-c3ccccc3)o2)n1,"inconclusive: 22.4 µM [inhibitor, single point]",–
c1ccc(-c2n[nH]c(-c3ccccc3)c2-c2nc3ccccc3[nH]2)cc1,–,inactive: 15.2%
Cc1ccc(-c2nnn(CC(=O)N(Cc3ccccc3)C(C(=O)NC3CCCC3)c3ccncc3)n2)o1 (stereo not drawn),–,inactive: 43.4%
O=C(CCl)NCc1cc(-c2ccc(Cl)cc2)no1,"inconclusive: 0.178 µM [inhibitor, full curve, poor fit]",–
O=C(CCC1CCCC1)NCc1ccccn1,"inconclusive: 12.6 µM [inhibitor, partial curve]",–
CC(C)(C)NC(=O)C(c1ccc(O)cc1)N(Cc1ccco1)C(=O)Cn1nnc(-c2cccs2)n1 (stereo not drawn),"inconclusive: 1.12 µM [activator, full curve, poor fit]",–
O=C(N/N=C/c1ccncc1)c1ccc(-n2cccc2)cc1,–,inactive: -6.1%
O=C(CCCOc1ccccc1)N1CCN(c2ccc(F)cc2)CC1,"inconclusive: 6.31 µM [activator, full curve]",–
CCc1nc(N2CCN(C(=O)CCl)CC2)c2c3c(sc2n1)CC(C)CC3 (stereo not drawn),active: 15.8 µM,–
CNC(=O)c1[nH]cnc1C(=O)Nc1cccc(OC)c1,active: 7.08 µM,–
CCOC(=O)N1CCN(c2c(-c3ccccc3)c3cc(Cl)ccc3[nH]c2=O)CC1,"inconclusive: 3.98 µM [activator, single point]",–
O=C(CSc1n[nH]c(-c2ccco2)n1)Nc1ccccc1Cl,–,inconclusive: 47.1% [activator]
